{"source": "patent US9133119B2", "about": "“Compounds for electronic devices” (Merck Patent GmbH, priority 2010, dated 2015)", "key": {"[1]": {"test": "OLED lifetime (LD80 / LD50: time until the luminous density drops to a certain proportion of the initial luminous density)"}, "[2]": {"test": "OLED characterisation: operating voltage, current efficiency, power efficiency, external quantum efficiency, electroluminescence spectra (IUL characteristic lines)", "settings": "for difference between the voltage for a thick HTL (200 nm) and a thinner HTL (110 nm): Examples C3 and C5, I1 and I2; for power efficiency: material in hole-transport layer 110 nm, Examples C3 and I1, H2:D2"}, "[3]": {"settings": "OLED having an HTL with a thickness of 200 nm, Examples C5 and I2"}, "[4]": {"settings": "red-emitting mixed matrix, replacement of CBP (Examples C6 and I37)"}, "[5]": {"settings": "electron-blocking material, blue emission (D1), ETM1 as electron-transport material"}, "[6]": {"settings": "electron-blocking layer, TEG1, compared with EBM1"}}}
{"smiles": "Cc1ccc(N(c2ccc(C)cc2)c2ccc3c(c2)C2(c4cc(N(c5ccc(C)cc5)c5ccc(C)cc5)ccc4-3)c3cc(N(c4ccc(C)cc4)c4ccc(C)cc4)ccc3-c3ccc(N(c4ccc(C)cc4)c4ccc(C)cc4)cc32)cc1", "note": "[HTM1, reference compound]", "values": [{"measurement": "lifetime", "setting": "[1]; [3]", "value": "250,000 h"}, {"measurement": "difference between the voltage for a thick HTL (200 nm) and a thinner HTL (110 nm)", "setting": "[2]", "value": 0.5, "unit": "V"}, {"measurement": "power efficiency", "setting": "[2]", "value": 10.7, "unit": "lm/W"}]}
{"smiles": "CC1(C)c2ccccc2-c2cc3c4cc(-c5ccc6c(c5)c5cccc7c5n6-c5ccccc5C7(C)C)ccc4n(-c4ccccc4)c3cc21", "note": "[H10, 3-(12,12-Dimethyl-10-phenyl-10,12-dihydro-10-azaindeno[2,1-b]fluoren-7-yl)-8,8-dimethyl-8H-indolo[3,2,1-de]acridine]", "values": [{"measurement": "increase in lifetime", "setting": "[1]; mixed matrix with H3, TEG1, compared with CBP", "value": "~60", "unit": "%"}, {"measurement": "increase in power efficiency", "setting": "[2]; mixed matrix with H3, TEG1, compared with CBP (Examples C10, I27)", "value": 60, "unit": "%"}, {"measurement": "increase in power efficiency", "setting": "[2]; mixed matrix with H3, TEG1, compared with TCTA (Examples C18, I27)", "value": "about 70%"}, {"measurement": "improvement in the voltage", "setting": "[2]; [4]", "value": 1.1, "unit": "V"}, {"measurement": "increase in the power efficiency", "setting": "[2]; [4]", "value": "about 50%"}]}
{"smiles": "CC1(C)c2ccccc2-n2c3ccc(N(c4ccccc4)c4ccc(-c5ccc(N(c6ccccc6)c6ccc7c(c6)c6cccc8c6n7-c6ccccc6C8(C)C)cc5)cc4)cc3c3cccc1c32", "note": "[HTM8, N4,N4′-Bis-(8,8-dimethyl-8H-indolo[3,2,1-de]acridin-3-yl)-N4,N4′-diphenylbiphenyl-4,4′-diamine]", "values": [{"measurement": "lifetime", "setting": "[1]; [3]", "value": "340,000 h"}, {"measurement": "improvement in lifetime", "setting": "[1]; hole-transport layer thickness 110 nm, HTM8 vs HTM1", "value": 10, "unit": "%"}, {"measurement": "difference between the voltage for a thick HTL (200 nm) and a thinner HTL (110 nm)", "setting": "[2]", "value": 0.3, "unit": "V"}, {"measurement": "reduction of operating voltage", "setting": "[2]; HTM8 in hole-transport layer 110 nm, Example I1 compared with Example C3, H2:D2", "value": 0.2, "unit": "V"}, {"measurement": "improvement in the power efficiency", "setting": "[2]; HTM8 in hole-transport layer, Example I1 vs C3", "value": "about 15%"}, {"measurement": "power efficiency", "setting": "[2]", "value": 12.1, "unit": "lm/W"}]}
{"smiles": "CC1(C)c2ccccc2-c2ccc(N(c3ccc(-c4ccccc4)cc3)c3ccc(-c4ccc5c(c4)c4cccc6c4n5-c4ccccc4C6(C)C)cc3)cc21", "note": "[HTM3, Biphenyl-4-yl-(9,9-dimethyl-9H-fluoren-2-yl)-[4-(8,8-dimethyl-8H-indolo[3,2,1-de]acridin-3-yl)phenyl]amine]", "values": [{"measurement": "increase in lifetime", "setting": "[1]; HTM3 as electron-blocking material vs NPB, blue emission", "value": 50, "unit": "%"}, {"measurement": "increase in lifetime", "setting": "[1]; HTM3 as electron-blocking material vs NPB, green emission (Examples C3, C5, I5, I6)", "value": "about 25%"}, {"measurement": "increase in lifetime", "setting": "[1]; electron-blocking layer, green-phosphorescent emitter TEG1, compared with EBM1 (Examples C12 and I17)", "value": "more than 60%"}, {"measurement": "lifetime", "setting": "[1]; [5]", "value": "about 7700 h"}, {"measurement": "increase in power efficiency", "setting": "[2]; [6]", "value": "about 10%"}, {"measurement": "increase in quantum efficiency", "setting": "[2]; [6]", "value": "about 10%"}]}
{"smiles": "c1ccc(N(c2ccc(-c3ccc(N(c4ccccc4)c4cccc5ccccc45)cc3)cc2)c2cccc3ccccc23)cc1", "note": "[NPB, reference compound]", "values": [{"measurement": "lifetime", "setting": "[1]; [5]", "value": 5200, "unit": "h"}]}
